## Results of single-concentration screens

By UniProt entry, the sequences of proteins in these tests, tags left out.
UniProt P9WPC5, whole entry: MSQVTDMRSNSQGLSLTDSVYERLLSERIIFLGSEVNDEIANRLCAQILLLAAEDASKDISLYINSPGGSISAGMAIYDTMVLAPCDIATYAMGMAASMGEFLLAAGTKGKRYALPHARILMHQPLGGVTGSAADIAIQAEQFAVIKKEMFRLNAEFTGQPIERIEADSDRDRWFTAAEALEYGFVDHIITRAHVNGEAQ
UniProt P9WPC3, whole entry partner: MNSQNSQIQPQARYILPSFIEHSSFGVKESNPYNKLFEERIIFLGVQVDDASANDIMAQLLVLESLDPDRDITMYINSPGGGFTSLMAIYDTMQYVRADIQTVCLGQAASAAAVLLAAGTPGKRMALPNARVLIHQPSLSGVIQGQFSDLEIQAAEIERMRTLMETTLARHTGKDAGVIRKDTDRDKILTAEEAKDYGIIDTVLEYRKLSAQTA
UniProt I6X8D2, whole entry: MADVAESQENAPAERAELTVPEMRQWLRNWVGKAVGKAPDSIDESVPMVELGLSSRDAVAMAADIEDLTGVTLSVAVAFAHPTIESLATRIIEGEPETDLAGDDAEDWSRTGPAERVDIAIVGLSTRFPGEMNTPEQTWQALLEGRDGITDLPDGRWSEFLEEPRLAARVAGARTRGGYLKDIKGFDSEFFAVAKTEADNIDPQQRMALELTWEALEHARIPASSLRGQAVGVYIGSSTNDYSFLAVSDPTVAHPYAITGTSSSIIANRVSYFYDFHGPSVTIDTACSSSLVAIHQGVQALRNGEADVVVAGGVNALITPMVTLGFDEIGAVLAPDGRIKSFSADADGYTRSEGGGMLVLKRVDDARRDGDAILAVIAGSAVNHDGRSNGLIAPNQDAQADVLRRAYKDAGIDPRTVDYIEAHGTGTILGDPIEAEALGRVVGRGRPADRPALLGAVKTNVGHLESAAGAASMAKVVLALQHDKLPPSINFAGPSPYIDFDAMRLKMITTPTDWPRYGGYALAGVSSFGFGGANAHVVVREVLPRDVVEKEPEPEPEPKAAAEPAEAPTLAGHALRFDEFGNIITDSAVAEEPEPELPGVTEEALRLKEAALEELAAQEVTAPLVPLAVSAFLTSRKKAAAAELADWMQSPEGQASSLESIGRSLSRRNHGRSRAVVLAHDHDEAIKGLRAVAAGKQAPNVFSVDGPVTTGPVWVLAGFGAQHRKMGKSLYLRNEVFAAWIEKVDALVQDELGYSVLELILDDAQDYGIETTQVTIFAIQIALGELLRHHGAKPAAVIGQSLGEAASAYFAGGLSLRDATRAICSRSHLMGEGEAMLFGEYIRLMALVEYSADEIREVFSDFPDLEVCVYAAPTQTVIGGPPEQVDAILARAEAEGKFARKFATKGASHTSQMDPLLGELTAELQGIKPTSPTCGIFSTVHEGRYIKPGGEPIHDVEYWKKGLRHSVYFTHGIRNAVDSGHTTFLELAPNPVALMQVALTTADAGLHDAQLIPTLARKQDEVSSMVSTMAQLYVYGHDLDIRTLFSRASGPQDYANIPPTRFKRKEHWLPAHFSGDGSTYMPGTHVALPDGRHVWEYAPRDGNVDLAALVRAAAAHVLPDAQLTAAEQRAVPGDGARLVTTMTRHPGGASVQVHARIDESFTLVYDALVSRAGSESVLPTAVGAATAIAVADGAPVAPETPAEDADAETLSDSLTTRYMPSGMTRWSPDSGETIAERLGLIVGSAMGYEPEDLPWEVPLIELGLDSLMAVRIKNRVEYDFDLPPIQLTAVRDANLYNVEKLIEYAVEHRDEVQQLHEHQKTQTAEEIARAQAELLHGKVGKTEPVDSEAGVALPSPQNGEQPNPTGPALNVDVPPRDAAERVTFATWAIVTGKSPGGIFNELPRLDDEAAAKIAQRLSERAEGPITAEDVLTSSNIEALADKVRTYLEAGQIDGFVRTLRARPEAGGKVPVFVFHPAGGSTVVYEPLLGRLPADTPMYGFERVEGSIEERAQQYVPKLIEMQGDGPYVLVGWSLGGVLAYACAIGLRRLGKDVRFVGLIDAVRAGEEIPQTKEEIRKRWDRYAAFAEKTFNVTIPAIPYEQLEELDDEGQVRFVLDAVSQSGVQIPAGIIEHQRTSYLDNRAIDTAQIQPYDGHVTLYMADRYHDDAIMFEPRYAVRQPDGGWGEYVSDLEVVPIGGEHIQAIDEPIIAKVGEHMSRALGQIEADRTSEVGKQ

ClpP1P2: 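ClpP1P2, Mycobacterium tuberculosis (UniProt P9WPC5 and UniProt P9WPC3). Protease assay of ClpP1P2, read by the AMC dye that it sets free. Tested at 50 µM. Direction is inferred from only a few compounds that gave an IC50; most scored high, so higher reads as stronger inhibition. Most other retested compounds had strongly negative values. Size under these conditions: about 69,000 compounds, about 10 of them at 50% or above in at least one test.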
Pks13 thioesterase: 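Enzyme assay of the thioesterase domain of polyketide synthase 13; the read-out is not stated. Target: Polyketide synthase Pks13, Mycobacterium tuberculosis (UniProt I6X8D2). Tested at 30 µM. The record gives no direction; the compounds picked for IC50 retests had high values, so higher reads as stronger inhibition. Of about 67,000 compounds tested this way, about 300 (0.46%) reached 50% or more in at least one test.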

The filed quantity is “Percent Effect” (%).
How 0% and 100% were set is not recorded. Most values in the screen are low, and negative values occur.
The compounds are a random part of those screened.
A dash means the value is not listed here; it may have been measured.

| structure | ClpP1P2 | Pks13 thioesterase |
|---|---|---|
| `CCC[C@@H]1CN(Cc2cnc(-c3cccs3)nc2)C[C@H]1C(=O)O` | -11.84% | -20.2% |
| `Cc1cc(C)c(CNC(=O)N2CCN(c3ccncc3)CC2)c(=O)[nH]1` | -36.84% | -19.22% |
| `NC(=O)[C@H]1CCCN1C(=O)c1csc(-c2ccc(C(F)(F)F)cc2)n1` | -11.56% | 2.268% |
| `COCCOc1ccc(CNC2CCc3ncnn3C2)cc1OC` (stereo not shown) | -6.62% | -11.19% |
| `COCC(C)N(C)C(=O)NC1CCN(c2ncccn2)CC1` (stereo not shown) | 10.57% | 12.36% |
| `COC1CCN(c2cc(C(C)C)nc3ccnn23)C1` (stereo not shown) | -2.362% | -13.66% |
| `Cc1cc(=O)n2nc(CNc3cc(Cl)ccc3C)nc2[nH]1` | -5.558% | -6.138% |
| `Cc1ccc(CNCc2nccn2C)c(OCC2CC2)c1` | -24.82% | -13.3% |
| `Cn1cccc1CN1CCc2ncnc(-c3cccnc3)c2CC1` | 1.035% | -6.813% |
| `COC(=O)COn1c(SC(C)C)nc2ccccc2c1=O` | -8.501% | -4.882% |
| `CC(NC(=O)C1(NC(=O)c2ccc3[nH]ncc3c2)CCCC1)C1CC1` (stereo not shown) | -6.099% | -2.811% |
| `CS(=O)(=O)CCC(=O)Nc1cc(F)ccc1OCC1CCCO1` (stereo not shown) | -9.356% | -11.04% |
| `Cc1ccc2c(n1)N(CC1CC1)CCN(S(=O)(=O)C1CC1)C2` | 0.2616% | -32.56% |
| `O=C1CCC2(CCN(Cc3cscn3)CC2)CN1CCCO` | -12.39% | -34.9% |
| `COCCCN(Cc1cnc(-c2cccs2)nc1)C1CCN(C)CC1` | -9.944% | -18.6% |
| `CN1CCN(C(=O)c2cc[nH]c(=O)c2)Cc2ccccc21` | -9.015% | -2.11% |
| `Cc1nnc([C@H]2C[C@H]3OCC[C@H]3N(S(=O)(=O)CC(C)C)C2)o1` | -2.098% | -27.22% |
| `Cc1c(C(=O)N2CCC(O)(CN(C)C)C2)c2ccccc2n1C` (stereo not shown) | -6.014% | - |
| `OC1(CN2CCCC2)CCCN(c2ncnc3[nH]cnc23)C1` (stereo not shown) | -7.074% | -1.589% |
| `COc1ccc(S(N)(=O)=O)cc1C(=O)N(C)Cc1cc(C)on1` | 30.53% | -10.08% |
| `O=C(CN1CCCC(Cn2cncn2)C1)NCCCc1ccccc1` (stereo not shown) | -16.17% | -5.816% |
| `COc1ccc(CN2CCc3nc4ccsc4c(=O)n3CC2)c(C)c1C` | -6.195% | -6.089% |
| `CCCS(=O)(=O)N1CCN(c2ccnc(N3CCCCC3)n2)CC1` | -4.097% | -31.5% |
| `Cc1cc(C)n(CC2CCCN2CCc2ccncc2)n1` (stereo not shown) | -6.792% | -14.93% |
| `COc1cc2nc(C)n(CC(=O)NCCCN(C)C)c(=O)c2cc1OC` | 15.29% | -25.63% |
| `CC(Cn1cccn1)NC(=O)N(C)Cc1ccc(C(N)=O)cc1` (stereo not shown) | 7.071% | 5.642% |
| `COc1cccc2c1OCC(NC(=O)NCc1cccs1)C2` (stereo not shown) | -6.182% | -25.27% |
| `COc1cccc(-c2nc(C)c(C(=O)N[C@H](CO)CC(C)C)s2)c1` | -6.574% | -20.39% |
| `CCOc1cc(C(=O)N(C)C)ccc1NC(=O)c1ccsc1` | -12.6% | -15.39% |
| `COCCSCC(=O)NCc1ccc(N(C)C)cc1` | 12.47% | - |
| `COCCN1CCN(Cc2c(C)noc2C)Cc2cccnc21` | 0.2404% | 2.786% |
| `O=C(CCc1nc(-c2ccsc2)no1)NCC1CCN(C2CC2)C1` (stereo not shown) | 0.4392% | -11.07% |
| `CCn1nc(C)c(CN(CCOC)C(=O)c2cnc(C)nc2O)c1C` | 2.645% | -22.32% |
| `Cc1cccc(C(=O)N(C)CC(=O)N2CCCC2)c1C` | 2.701% | -13.93% |
| `COc1ccc(S(=O)(=O)N2CCOC(C)(C(N)=O)C2)cc1` (stereo not shown) | -15.17% | -5.043% |
| `CSc1ccccc1NC(=O)c1ccc(N2CCOCC2)nn1` | 12.06% | -7.817% |
| `Cc1cnn(CCNCC(=O)NCCOc2ccccc2)c1` | 11.33% | -11.38% |
| `CCc1cccc(OCCCN(C)C(=O)CN2CCNC2=O)c1` | -11.75% | -31.11% |
| `CC(C)CC(=O)Nc1ccc2c(c1)ncn2CC(=O)NCCN(C)C` | 9.875% | -3.216% |
| `COCC(=O)N1CCCC(Cc2cnc(-c3c(C)n[nH]c3C)cn2)C1` (stereo not shown) | -10.35% | 2.86% |
| `CC(=O)NC1CCCN(C(=O)NCCOc2ccc3c(c2)OCO3)C1` (stereo not shown) | 0.2425% | - |
| `CO[C@H]1CN(C(=O)c2cn3cc(C)ccc3n2)CC[C@@]12CCCO2` | -9.513% | -5.608% |
| `CN(CC(=O)NCC(F)(F)F)Cc1nc2c(s1)CCCC2` | -14.29% | 0.51% |
| `CCn1ccnc1S(=O)(=O)Cc1ccc(C(N)=O)cc1` | -5.715% | -0.812% |
| `CCN1CCN(C2CCN(Cc3nnc(C(C)(C)C)o3)CC2)C1=O` | 6.227% | -17.96% |
| `CC(C)C(C(=O)N1CCC2(CC1)CN(C)C(=O)O2)c1ccccc1` (stereo not shown) | -4.355% | -23.12% |
| `O=S(=O)(NCCN1CCCCC1Cn1cncn1)c1ccccc1` (stereo not shown) | -3.825% | -5.382% |
| `COCCNC(=O)[C@]12COC[C@H]1CN(C1CCOCC1)C2` | 11.42% | -43.6% |
| `OCc1cc(C2CCCN2c2ncccn2)n[nH]1` (stereo not shown) | 3.046% | -6.458% |
| `Fc1ccc(CCN2CCC(c3nnc(-c4cccnc4)o3)CC2)cc1` | 12.7% | -21.51% |
| `O=C(O)c1cc(C2CC2)nc2c(Cl)cnn12` | -3.219% | -3.203% |
| `Cc1noc(C(C)C)c1C(=O)NCC1CCN(c2ccccc2)C1` (stereo not shown) | 9.709% | -26.64% |

Data taken from ChEMBL document CHEMBL3988442, “University of Dundee, Small-Polar-MMV Screening Library” (2021).